In article PMC11761745 one finds binding data, which are given here for one molecule.

The test has as its target Fat mass and obesity-associated protein (FTO) (human (endogenous in KG1a)) (UniProt Q9C0B1). Briefly: co-IP; KG1a cell lysate incubated with anti-FTO antibody overnight at 4 °C, protein A/G agarose 12 h at 4 °C, PBS wash, Western blotting. In general terms: Immunoblotting shows a protein as a band on a membrane.

These are yes or no findings as the source states them, for the method shown. Binding seen in cells or lysates may run through a third protein. Some binding calls cover weakened binding; strength is not graded here.

B1: O-GlcNAc transferase (OGT) (enzyme, UniProt O15294 1-1046)
chain: MASSVGNVADSTEPTKRMLSFQGLAELAHREYQAGDFEAAERHCMQLWRQEPDNTGVLLLLSSIHFQCRRLDRSAHFSTLAIKQNPLLAEAYSNLGNVYKERGQLQEAIEHYRHALRLKPDFIDGYINLAAALVAAGDMEGAVQAYVSALQYNPDLYCVRSDLGNLLKALGRLEEAKACYLKAIETQPNFAVAWSNLGCVFNAQGEIWLAIHHFEKAVTLDPNFLDAYINLGNVLKEARIFDRAVAAYLRALSLSPNHAVVHGNLACVYYEQGLIDLAIDTYRRAIELQPHFPDAYCNLANALKEKGSVAEAEDCYNTALRLCPTHADSLNNLANIKREQGNIEEAVRLYRKALEVFPEFAAAHSNLASVLQQQGKLQEALMHYKEAIRISPTFADAYSNMGNTLKEMQDVQGALQCYTRAIQINPAFADAHSNLASIHKDSGNIPEAIASYRTALKLKPDFPDAYCNLAHCLQIVCDWTDYDERMKKLVSIVADQLEKNRLPSVHPHHSMLYPLSHGFRKAIAERHGNLCLDKINVLHKPPYEHPKDLKLSDGRLRVGYVSSDFGNHPTSHLMQSIPGMHNPDKFEVFCYALSPDDGTNFRVKVMAEANHFIDLSQIPCNGKAADRIHQDGIHILVNMNGYTKGARNELFALRPAPIQAMWLGYPGTSGALFMDYIITDQETSPAEVAEQYSEKLAYMPHTFFIGDHANMFPHLKKKAVIDFKSNGHIYDNRIVLNGIDLKAFLDSLPDVKIVKMKCPDGGDNADSSNTALNMPVIPMNTIAEAVIEMINRGQIQITINGFSISNGLATTQINNKAATGEEVPRTIIVTTRSQYGLPEDAIVYCNFNQLYKIDPSTLQMWANILKRVPNSVLWLLRFPAVGEPNIQQYAQNMGLPQNRIIFSPVAPKEEHVRRGQLADVCLDTPLCNGHTTGMDVLWAGTPMVTMPGETLASRVAASQLTCLGCLELIAKNRQEYEDIAVKLGTDLEYLKKVRGKVWKQRISSPLFNTKQYTMELERLYLQMWEHYAAGNKPDHMIKPVEVTESA
B1: the binding result was “binds”.
